In patent publication US10668040B2, “Treatment of urea cycle disorders in neonates and infants” (Horizon Therapeutics, LLC, priority 2017, dated 2020):
At least one compound was matched to its structure with a doubt left. Some of these results come from one statement about several compounds together.

Columns and labels:
pediatric UCD patients = assay: Pooled ammonia analyses from short term studies; format: in vivo, human
Procedure: Pooled ammonia analyses from short term studies were also conducted.

UCD patients = assay: Example 3: TEAEs, serious and non-serious adverse events; format: in vivo; conditions: Non-serious adverse events; Age 2 Months to <2 Years
Source text: Sixteen newborn infants aged 0 to 27 days, and 10 infants and toddlers aged 28 days to 23 months received RAVICTI Oral Liquid administered just prior to breastfeeding or intake of formula or food. The recommended dosing regimen was 3-6 times per day depending on feeding schedule.
Number of Subjects with Treatment-Emergent Adverse Events (TEAEs), Serious TEAEs, Deaths, and Discontinuations Due to TEAEs
An adverse event (AE) is any untoward medical occurrence, whether or not the event is considered related to the study drug. A serious AE is any AE that: results in death; is life threatening; requires hospitalization or prolongation of existing hospitalization; results in disability/incapacity; is a congenital anomaly/birth defect; is an important medical event. TEAEs are defined as AEs with an onset date on or after the first dose of study medication until study discontinuation. The Investigator assessed the causal relationship of each TEAE to the study drug as not related, possibly related, or probably related. From the first dose of study treatment through 30 days after the final dose (mean [SD] duration of treatment was 9.13 [6.838] months).

[1] = human, in vivo; cited from earlier work

## O=C(CCCc1ccccc1)OCC(COC(=O)CCCc1ccccc1)OC(=O)CCCc1ccccc1 [RAVICTI, benzenebutanoic acid, 1′,1″-(1,2,3-propanetriyl) ester]
Pediatric UCD patients
  24 hour ammonia AUC0-24, mean [SD]: 627 [302] μmon
UCD patients
  Musculoskeletal and connective tissue Disorders (Torticollis), Subjects Affected/Exposed: 0/10 (0.00%)
  Nasal congestion, Subjects Affected/Exposed: 1/10 (10.00%)
[1]
  conversion of PBA to U-PAGN: 60-75%
